Assay results: US12187679B2, “Hydroxylated psilocybin derivatives and methods of using” (Enveric Biosciences Canada Inc., priority 2020, dated 2025)
At least one read-out could not be matched to a standard name with certainty.

By UniProt entry, the sequences of proteins in these tests, tags left out.
UniProt P28223, whole entry: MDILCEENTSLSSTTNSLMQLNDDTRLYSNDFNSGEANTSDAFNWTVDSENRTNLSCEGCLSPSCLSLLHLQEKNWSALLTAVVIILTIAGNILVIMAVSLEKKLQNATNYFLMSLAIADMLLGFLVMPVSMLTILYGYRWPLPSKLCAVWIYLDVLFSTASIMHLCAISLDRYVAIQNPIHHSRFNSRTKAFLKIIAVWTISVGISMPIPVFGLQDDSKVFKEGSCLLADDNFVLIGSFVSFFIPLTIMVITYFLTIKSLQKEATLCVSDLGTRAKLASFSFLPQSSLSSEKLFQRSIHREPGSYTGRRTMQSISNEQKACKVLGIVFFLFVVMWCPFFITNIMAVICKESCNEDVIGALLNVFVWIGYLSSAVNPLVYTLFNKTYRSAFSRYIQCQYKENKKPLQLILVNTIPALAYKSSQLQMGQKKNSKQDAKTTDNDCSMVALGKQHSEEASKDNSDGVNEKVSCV

Molecular target: 5-HT2A receptor (Homo sapiens, UniProt P28223)
Assay: Fluo-8 calcium release assay, serotonin with and without compound (positive allosteric modulation), +5-HT2A cells
Assay type: cell-based
Settings: CHO-K1/5-HT2A (+5-HT2A) cells; serotonin assayed with and without compound; FIG. 8B
Excerpt: Cell lines for pharmacology assays. CHO-K1/Galpha15 (GenScript, M00257) (−5-HT2A) and CHO-K1/5-HT2A (GenScript, M00250) (+5-HT2A) cells lines were used in both toxicology/growth inhibition (MTT) and calcium release assays. Briefly, CHO-K1/Galpha15 is a control cell line that constitutively expresses Galpha15 which is a promiscuous Gq protein. It is engineered as a host cell, allowing transfected receptor(s) to signal through the Gq signal transduction pathway and mobilize intracellular calcium from the endoplasmic reticulum (ER). These control cells lack any transgene encoding 5-HT2A receptors, thus preventing calcium mobilization in response to 5-HT2A activation. Conversely, CHO-K1/5-HT2A cells stably express 5-HT2A receptor in the CHO-K1 host background. […]
Increase in cytosolic calcium concentration by 5-HT2A activation and assessment of modulation. Changes in intracellular calcium concentration due to the treatment with assay compounds was measured using Fluo-8 dye (Abcam, #ab112129) according to the manufacturer's instructions. […] Fluorescence (ex 490 nm/em 525 nm) obtained after the addition of molecules was expressed relative to values obtained before addition of the molecules (relative Fluo-8 fluorescence=Fmax/F0, where Fmax=maximum fluorescence and F0=baseline fluorescence). Fluorescence intensities were measured using a Spectramax ID3 plate reader (www.moleculardevices.com). […]

CC(=O)NCCc1c[nH]c2c(C)ccc(O)c12 [compound (IV), N-[2-(4-hydroxy-7-methyl-1H-indol-3-yl)ethyl]acetamide]
serotonin EC50 in the presence of compound (positive allosteric modulation): shift in serotonin EC50
